Drawing on publication PMC3420945, this text covers binding for two molecules.

This experiment addresses RomR fused to a hexahistidine motif (His6) at its C-terminus (Myxococcus xanthus). In words: pull-down; co-purification of M. xanthus soluble extracts on nickel beads by RomR-His6 (otherwise WT, mglA and mglB mutant backgrounds); lysis buffer NaH2PO4 50 mM, NaCl 100 mM, MgCl2 5 mM, 10 uM GDP, 20 mM imidazole pH 8.0; 4°C, 2 hours; three washes; Western blot of the eluate; control strains with un-tagged RomR. A general note: In western blotting, separated proteins are transferred to a membrane and probed.

Results are given in words; binding and its absence hold for the method and conditions named. In cells and extracts the contact can be indirect. Binding calls can cover weak binding; strength is not graded here.

B1: MglB (protein, UniProt Q1DB03 1-159)
chain: MGTQLVMYEEEFTKINAVCDRLTKDANAKVVFLVDKNGQLISSAGQTQNIDTTSLASLTAGNVAAMGGLAKLIGENEFPNQFHEGAKDSLYMTIVGSRVVLVVIFDNRTSLGLVRLRIKKASDELTKIFESLVKKTDSPGAGSPFAEISDDDIDNLFSE
Turning to B1, the binding result was “binds”.

B2: MglA (protein, UniProt Q1DB04 1-195)
chain: MSFINYSSREINCKIVYYGPGLCGKTTNLQYIYNKTAAETKGKLISLSTETDRTLFFDFLPLSLGEIRGFKTRFHLYTVPGQVFYDASRKLILKGVDGVVFVADSQIERMEANMESLENLRINLAEQGYDLNKIPYVIQYNKRDLPNAVTVEEMRKALNHRNIPEYQAVAPTGVGVFDTLKAVAKLVLTELKKGG
For the molecule B2, the binding entry is “binds”.
